For the assay, the target named is T1, MEG-1::GFP (C. elegans) (UniProt Q21126).
T1 sequence: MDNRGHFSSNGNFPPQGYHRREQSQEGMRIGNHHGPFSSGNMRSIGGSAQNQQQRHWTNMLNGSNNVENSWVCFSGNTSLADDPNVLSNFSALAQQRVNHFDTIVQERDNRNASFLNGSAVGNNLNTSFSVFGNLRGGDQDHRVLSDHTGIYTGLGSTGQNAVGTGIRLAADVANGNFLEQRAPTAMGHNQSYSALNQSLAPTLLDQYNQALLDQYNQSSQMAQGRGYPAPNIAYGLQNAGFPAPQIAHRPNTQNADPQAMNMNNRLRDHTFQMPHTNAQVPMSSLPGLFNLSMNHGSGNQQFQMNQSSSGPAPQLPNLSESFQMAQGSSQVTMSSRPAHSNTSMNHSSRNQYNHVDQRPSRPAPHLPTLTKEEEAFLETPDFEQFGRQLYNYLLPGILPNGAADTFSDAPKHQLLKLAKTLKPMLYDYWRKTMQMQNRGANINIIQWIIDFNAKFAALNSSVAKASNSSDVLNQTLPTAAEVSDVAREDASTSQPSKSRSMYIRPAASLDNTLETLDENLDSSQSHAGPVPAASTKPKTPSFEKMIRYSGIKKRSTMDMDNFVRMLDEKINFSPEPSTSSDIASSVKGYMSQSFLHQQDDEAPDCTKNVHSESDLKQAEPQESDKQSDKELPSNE
As to the kind of experiment: co-IP; GFP fusions (MEG-1::GFP, MEG-3::GFP) immunoprecipitated from embryo lysates with anti-GFP nanobody magnetic beads (4°C, 90 min; IP buffer 300 mM KCl, 50 mM HEPES pH 7.4, 0.1% NP-40); western blot with anti-POS-1 serum, anti-α-Tubulin and anti-GFP. (A western blot detects proteins with antibodies after separation by electrophoresis.)

By UniProt entry, the sequences of proteins in these tests, tags left out.
UniProt G5EF15: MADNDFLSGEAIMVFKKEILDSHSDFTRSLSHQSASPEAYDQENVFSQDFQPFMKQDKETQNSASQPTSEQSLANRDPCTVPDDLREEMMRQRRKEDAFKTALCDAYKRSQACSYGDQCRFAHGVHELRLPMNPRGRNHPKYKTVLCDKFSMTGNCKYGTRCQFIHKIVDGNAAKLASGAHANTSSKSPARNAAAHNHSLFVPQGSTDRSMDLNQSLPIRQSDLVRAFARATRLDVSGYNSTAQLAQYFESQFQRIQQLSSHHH

From article PMC9686995 come the findings set out here.

Results are given in words; binding and its absence hold for the method and conditions named. In cells and extracts the contact can be indirect. Some results given as binding are weak or reduced against the parent protein; the word gives no strength. Where a sequence is shown, tags or fusion partners need not be part of it.

With POS-1 (from UniProt G5EF15 1-264), the binding entry is reported as “binds”.
